Test results as given in article PMC5658362 (Scientific Reports, 2017).

Assay: pH of BB10 medium upon treatment
Type: physicochemical

Row | SMILES | decrease of BB10 pH (10 mM HCl) | pH difference between highest and lowest amount (10 mM vs 0.1 mM sodium L-lactate in BB10) | decrease of BB10 pH (any concentration of sodium L-lactate)
1 | Cl [HCl] | more than 1.5 pH units | – | –
2 | CC(O)C(=O)O (stereo not drawn) [lactate] | – | ~ 0.01 | less than 0.05 pH units

Where a name gives a salt, the structure may show the parent alone.
